Experimental findings from patent US9056922B2 (HOWARD FLOREY INSTITUTE OF EX[…] MEDICINE, priority 2007, dated 2015) are described below.

The data set is described as follows: general procedure: Fmoc solid-phase peptide synthesis in flow; Fmoc-Cys(Acm)-NovaSyn TGT (A-chain); Fmoc-Ser-PAC-PEG-PS (B-chain); HBTU.

Take [Cys^11(Acm), Cys^24(But)]-A-chain: the oxidative folding yield (oxidative folding step, on crude A-chain) was found to be 27%.
In the case of [Cys^11(Pyr), Cys^24(Acm)]A-Chain, the step yield (late stage modification step) amounted to 86.8%.
Regarding “[Cys^24(Acm)]A-chain/[Cys^23(Acm)] B-chain”, the conjugation yield (conjugation step) is recorded as 10.5%.
